Test results: publication PMC12285911
No constants are given. Whether binding was seen depends on the method and setting. A result given as binding can be weak or reduced; the word gives no strength.

Target: T1, FAT10 (human leukocyte antigen-F-adjacent transcript 10), wild type, full length, unlabeled (human)
T1 sequence: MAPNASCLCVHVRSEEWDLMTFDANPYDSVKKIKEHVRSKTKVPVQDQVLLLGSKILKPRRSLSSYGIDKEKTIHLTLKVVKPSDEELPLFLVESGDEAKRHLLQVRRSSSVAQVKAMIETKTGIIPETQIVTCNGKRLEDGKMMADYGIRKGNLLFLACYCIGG
Assay: SEC-SAXS; NUB1 + FAT10 (50 μM + 55 μM) and NUB1^ΔUBL + FAT10 (50 μM + 55 μM) on a Shodex KW803 column in 60 mM HEPES pH 7.4, 150 mM NaCl, 5% glycerol, 0.5 mM TCEP, 22 °C; scattering compared with AlphaFold-Multimer models; both purified

**Q.** NUB1^ΔUBL (human) was tested. Which binding did it give?
**A.** binds
